Measurements reported in article PMC4773171.
No constants are given. Whether binding was seen depends on the method and setting. Binding seen in cells or lysates may run through a third protein. Some binding calls cover weakened binding; strength is not graded here. Tags and fused reporters may be left off the sequences shown.

Chains of the proteins cited; added tags and fusions are not shown.
UniProt Q9JMB7: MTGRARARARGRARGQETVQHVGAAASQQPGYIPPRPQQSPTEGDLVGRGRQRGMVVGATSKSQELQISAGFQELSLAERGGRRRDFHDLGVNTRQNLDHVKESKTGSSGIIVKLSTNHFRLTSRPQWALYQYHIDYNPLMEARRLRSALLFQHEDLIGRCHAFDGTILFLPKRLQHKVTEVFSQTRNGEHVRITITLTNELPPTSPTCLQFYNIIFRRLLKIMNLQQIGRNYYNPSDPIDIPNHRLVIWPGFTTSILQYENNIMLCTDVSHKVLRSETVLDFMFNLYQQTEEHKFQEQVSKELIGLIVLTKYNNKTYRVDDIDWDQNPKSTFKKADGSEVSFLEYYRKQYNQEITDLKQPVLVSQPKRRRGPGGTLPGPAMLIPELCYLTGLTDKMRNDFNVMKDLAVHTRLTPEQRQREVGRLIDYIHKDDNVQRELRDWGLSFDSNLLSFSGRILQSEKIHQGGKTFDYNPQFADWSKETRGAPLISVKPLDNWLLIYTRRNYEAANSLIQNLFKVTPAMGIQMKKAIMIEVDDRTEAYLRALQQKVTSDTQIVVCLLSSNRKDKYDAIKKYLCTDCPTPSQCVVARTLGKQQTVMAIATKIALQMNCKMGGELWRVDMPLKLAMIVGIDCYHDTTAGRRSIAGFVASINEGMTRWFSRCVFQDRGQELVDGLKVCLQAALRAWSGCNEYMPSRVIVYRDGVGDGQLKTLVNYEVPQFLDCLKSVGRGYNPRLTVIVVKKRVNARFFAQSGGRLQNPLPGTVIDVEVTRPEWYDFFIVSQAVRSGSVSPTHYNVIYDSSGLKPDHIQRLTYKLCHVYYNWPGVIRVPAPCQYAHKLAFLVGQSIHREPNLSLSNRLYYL
UniProt P61407: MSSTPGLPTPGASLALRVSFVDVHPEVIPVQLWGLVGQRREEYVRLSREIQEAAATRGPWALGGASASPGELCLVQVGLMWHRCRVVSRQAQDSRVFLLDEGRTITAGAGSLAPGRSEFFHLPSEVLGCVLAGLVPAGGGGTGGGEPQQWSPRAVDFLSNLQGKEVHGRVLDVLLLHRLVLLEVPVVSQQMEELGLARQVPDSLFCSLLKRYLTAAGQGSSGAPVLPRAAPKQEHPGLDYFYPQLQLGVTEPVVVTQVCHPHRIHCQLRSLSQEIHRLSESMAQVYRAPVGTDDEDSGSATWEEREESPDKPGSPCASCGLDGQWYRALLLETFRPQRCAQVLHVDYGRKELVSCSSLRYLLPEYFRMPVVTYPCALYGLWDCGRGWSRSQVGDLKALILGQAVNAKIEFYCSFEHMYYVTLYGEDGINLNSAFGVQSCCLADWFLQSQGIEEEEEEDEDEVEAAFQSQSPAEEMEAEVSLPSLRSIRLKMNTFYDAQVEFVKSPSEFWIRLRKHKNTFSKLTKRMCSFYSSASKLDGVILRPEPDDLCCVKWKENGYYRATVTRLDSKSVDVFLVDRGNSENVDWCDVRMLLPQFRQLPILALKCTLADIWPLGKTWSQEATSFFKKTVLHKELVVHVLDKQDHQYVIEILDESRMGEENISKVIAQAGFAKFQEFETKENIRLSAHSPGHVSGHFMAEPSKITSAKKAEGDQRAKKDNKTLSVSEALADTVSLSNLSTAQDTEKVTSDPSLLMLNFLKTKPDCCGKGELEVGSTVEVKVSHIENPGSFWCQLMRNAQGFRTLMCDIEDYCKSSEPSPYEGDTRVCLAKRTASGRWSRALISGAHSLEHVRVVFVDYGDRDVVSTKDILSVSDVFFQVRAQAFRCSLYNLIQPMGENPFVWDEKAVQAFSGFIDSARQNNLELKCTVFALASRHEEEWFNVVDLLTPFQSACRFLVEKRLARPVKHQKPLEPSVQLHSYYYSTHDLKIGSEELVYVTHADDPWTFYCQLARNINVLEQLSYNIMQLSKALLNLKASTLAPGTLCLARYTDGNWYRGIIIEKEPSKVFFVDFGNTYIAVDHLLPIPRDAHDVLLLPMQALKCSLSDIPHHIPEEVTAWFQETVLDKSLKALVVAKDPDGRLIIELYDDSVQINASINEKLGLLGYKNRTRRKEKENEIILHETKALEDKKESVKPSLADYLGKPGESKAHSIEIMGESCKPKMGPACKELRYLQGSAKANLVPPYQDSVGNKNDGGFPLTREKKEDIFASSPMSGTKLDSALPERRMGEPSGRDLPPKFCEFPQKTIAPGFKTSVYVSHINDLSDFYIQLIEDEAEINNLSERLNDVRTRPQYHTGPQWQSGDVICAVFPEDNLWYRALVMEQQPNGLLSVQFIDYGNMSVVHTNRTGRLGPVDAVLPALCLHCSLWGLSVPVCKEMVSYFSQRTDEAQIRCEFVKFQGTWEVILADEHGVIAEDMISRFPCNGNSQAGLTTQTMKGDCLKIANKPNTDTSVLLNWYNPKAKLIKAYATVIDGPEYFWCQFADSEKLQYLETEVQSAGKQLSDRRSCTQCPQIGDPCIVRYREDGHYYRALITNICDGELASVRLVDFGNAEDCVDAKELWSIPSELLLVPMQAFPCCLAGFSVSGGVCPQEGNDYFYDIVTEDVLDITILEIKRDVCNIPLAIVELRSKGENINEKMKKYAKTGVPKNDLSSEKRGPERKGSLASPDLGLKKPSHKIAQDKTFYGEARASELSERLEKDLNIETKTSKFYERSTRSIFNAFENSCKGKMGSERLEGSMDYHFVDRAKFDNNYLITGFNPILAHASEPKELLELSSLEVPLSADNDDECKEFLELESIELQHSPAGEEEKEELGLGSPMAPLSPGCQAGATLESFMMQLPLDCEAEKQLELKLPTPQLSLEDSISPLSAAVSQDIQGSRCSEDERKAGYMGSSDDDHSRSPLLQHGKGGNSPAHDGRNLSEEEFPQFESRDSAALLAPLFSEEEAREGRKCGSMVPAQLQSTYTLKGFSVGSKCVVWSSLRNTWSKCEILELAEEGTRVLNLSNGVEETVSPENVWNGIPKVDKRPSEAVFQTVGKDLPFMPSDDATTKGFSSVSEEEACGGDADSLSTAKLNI

How the values were obtained:
[1] = biological target: T1, GST-fused GTSF1L N-terminal region (ZnF) (mouse) (UniProt Q9CWD0); test: pull-down; GST-fusion protein on Glutathione Sepharose 4B beads; mouse testis lysate, untreated, 2 h at 4°C; binding buffer 20 mM Tris-HCl pH 7.5, 150 mM NaCl, 0.1% NP40; western blotting of the bound fraction; only the target purified
T1 sequence: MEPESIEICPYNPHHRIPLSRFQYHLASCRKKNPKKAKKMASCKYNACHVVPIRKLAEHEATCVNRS

[2] = biological target: T2, GST-fused full-length GTSF1L (mouse) (UniProt Q9CWD0); test: as above
T2 sequence: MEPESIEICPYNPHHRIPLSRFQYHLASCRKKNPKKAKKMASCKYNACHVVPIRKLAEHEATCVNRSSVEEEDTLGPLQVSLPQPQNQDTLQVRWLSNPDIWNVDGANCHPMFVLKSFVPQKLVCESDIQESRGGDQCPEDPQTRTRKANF

MIWI (from UniProt Q9JMB7 1-862)
binding [1]: binds

TDRD6 (from UniProt P61407 1-2134)
binding [2]: no binding

B1: TDRD1 (protein, UniProt Q99MV1 1-1172)
chain: MMPRNNLEASTCKMAEPFNFEKKESKPPPQDPLRSPVAQHNHPTFRLKSPENGNTKNNFLLCEQNKQYLASQEDSSVVSSNPAVVNGEVGGSKGDRKPPPTGNPVSPLSLGNSSPPNQVKTKPSSNVTPEKSKKSHKLFENALSVNNPALFNSLGPPLRSTTCHRCGLFGSLRCSQCKQTYYCSTACQRRDWSSHSTICRPVQQSLNKLEDNKSPFETKAIEVKSEVDCPPGVTKEITAGAERVMFSDLRSLQLKKTMEIKGTVTEFKHPSNFYIQLYSSEVLENMNQLSTSLKETYANVVPEDGYLPVKGEVCVAKYTVDQTWNRAIVQAVDVLQRKAHVLYIDYGNEEMIPIDSVHPLSRGLDLFPPSAIKCCVSGVIPTAGEWSEGCVAAVKALLFEQFCSVKVMDILEEEVLTCAVDLVLQSSGKQLDHVLVEMGYGVKPGEQSSTEQSVDHSALEDVGRVTVESKIVTDRNALIPKVLTLNVGDEFCGVVAHIQTPEDFFCQQLQSGHKLAELQESLSEYCGHVIPRSDFYPTIGDVCCAQFSEDDQWYRASVLAYASEESVLVGYVDYGNFEILSLKRLCPIIPKLLDLPMQALNCVLAGVKPSLGIWTPEAVCVMKEMVQNRMVTVRVVGMLGTRALVELIDKSVAPHVSASKALIDSGFAIKEKDVADKGSSMHTASVPLAIEGPAEALEWTWVEFTVDETVDVVVCMMYSPGEFYCHFLKDDALEKLDDLNQSLADYCAQKPPNGFKAEIGRPCCAFFSGDGNWYRALVKEILPSGNVKVHFVDYGNVEEVTTDQLQAILPQFLLLPFQGMQCWLVDIQPPNKHWTKEATARFQACVVGLKLQARVVEITANGVGVELTDLSTPYPKIISDVLIREQLVLRCGSPQDSLMSRPANQHKQIDSHRVQASPSAEQWKTMELPVNKTIAANVLEIISPALFYAIPSEMSENQEKLCVLAAELLEHCNAQKGQPAYRPRTGDACCAKYTNDDFWYRAIVLETSESDVKVLYADYGNIETLPLSRVQPIPASHLELPFQIIRCSLEGPMELNGSCSQLVMELLRNAMLNQSVVLSVKAISKNVHAVSVEKCSENGMINIAENLVMCGLAENLTSKRKSASTKEIPHSRDCCCTELQKQIEKHEQILLFLLNNPTNQSKFTEMKKLLRS
binding [1]: binds
